Results are given in words; binding and its absence hold for the method and conditions named. Binding seen in cells or lysates may run through a third protein. Some entries that bind do so weakly or less than the wild type.
Columns and labels:
[1] = target: TAZ (mouse) (mouse (endogenous in BALB/c mammary tissue and 4T1 tumors)) (UniProt Q9EPK5); assay: co-IP; anti-YAP or anti-TAZ antibody (control IgG); ALDH+ and ALDH- cells sorted from normal mouse mammary tissue and 4T1-induced mammary tumors; immunoblot
[2] = target: YAP (mouse) (mouse (endogenous in BALB/c mammary tissue and 4T1 tumors)) (UniProt P46938); assay: as above
[3] = target: TAZ (transcriptional co-activator with PDZ-binding motif) (human (endogenous in patient breast tissue and MDA-MB-231)) (UniProt Q9GZV5); assay: co-IP; anti-YAP or anti-TAZ antibody (control IgG); ALDH+ and ALDH- cells sorted from patient breast tumors and adjacent normal tissue, nucleus; immunoblot
[4] = target: YAP (yes-associated protein) (human (endogenous in patient breast tissue and MDA-MB-231)) (UniProt P46937); assay: as above
[5] = target: TAZ (transcriptional co-activator with PDZ-binding motif) (human (endogenous in patient breast tissue and MDA-MB-231)) (UniProt Q9GZV5); assay: co-IP; anti-YAP or anti-TAZ antibody (control IgG); nucleus and cytoplasm of CD44+/CD24- cells (CSCs) and of the rest of the cells (non-CSCs) sorted from patient breast tumors; immunoblot
[6] = target: YAP (yes-associated protein) (human (endogenous in patient breast tissue and MDA-MB-231)) (UniProt P46937); assay: as above
[7] = target: TAZ (transcriptional co-activator with PDZ-binding motif) (human (endogenous in patient breast tissue and MDA-MB-231)) (UniProt Q9GZV5); assay: co-IP; anti-YAP or anti-TAZ antibody (control IgG) overnight at 4 °C, protein A/G beads; nuclear and cytoplasmic fractions of chemo-treated patient breast tumors and adjacent normal tissue; immunoblot
[8] = target: YAP (yes-associated protein) (human (endogenous in patient breast tissue and MDA-MB-231)) (UniProt P46937); assay: as above
[9] = target: TAZ (transcriptional co-activator with PDZ-binding motif) (human (endogenous in patient breast tissue and MDA-MB-231)) (UniProt Q9GZV5); assay: co-IP; anti-YAP or anti-TAZ antibody (control IgG) overnight at 4 °C, protein A/G beads; nuclear and cytoplasmic fractions of MDA-MB-231 mammospheres (also adherent cells; also mammospheres treated with 4 µM verteporfin); immunoblot
[10] = target: YAP (yes-associated protein) (human (endogenous in patient breast tissue and MDA-MB-231)) (UniProt P46937); assay: as above

Chains of the proteins cited; added tags and fusions are not shown.
UniProt Q9EPK5: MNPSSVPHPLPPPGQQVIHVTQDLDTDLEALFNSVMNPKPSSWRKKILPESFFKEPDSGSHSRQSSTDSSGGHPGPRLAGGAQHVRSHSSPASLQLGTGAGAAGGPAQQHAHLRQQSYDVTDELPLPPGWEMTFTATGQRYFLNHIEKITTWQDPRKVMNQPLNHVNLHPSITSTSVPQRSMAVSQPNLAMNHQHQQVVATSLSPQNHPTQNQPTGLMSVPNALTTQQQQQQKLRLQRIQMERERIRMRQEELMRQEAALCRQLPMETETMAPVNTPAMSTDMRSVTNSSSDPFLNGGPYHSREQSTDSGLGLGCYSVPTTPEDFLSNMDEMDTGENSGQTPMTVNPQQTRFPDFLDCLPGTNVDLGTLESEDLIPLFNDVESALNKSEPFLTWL
UniProt P46938: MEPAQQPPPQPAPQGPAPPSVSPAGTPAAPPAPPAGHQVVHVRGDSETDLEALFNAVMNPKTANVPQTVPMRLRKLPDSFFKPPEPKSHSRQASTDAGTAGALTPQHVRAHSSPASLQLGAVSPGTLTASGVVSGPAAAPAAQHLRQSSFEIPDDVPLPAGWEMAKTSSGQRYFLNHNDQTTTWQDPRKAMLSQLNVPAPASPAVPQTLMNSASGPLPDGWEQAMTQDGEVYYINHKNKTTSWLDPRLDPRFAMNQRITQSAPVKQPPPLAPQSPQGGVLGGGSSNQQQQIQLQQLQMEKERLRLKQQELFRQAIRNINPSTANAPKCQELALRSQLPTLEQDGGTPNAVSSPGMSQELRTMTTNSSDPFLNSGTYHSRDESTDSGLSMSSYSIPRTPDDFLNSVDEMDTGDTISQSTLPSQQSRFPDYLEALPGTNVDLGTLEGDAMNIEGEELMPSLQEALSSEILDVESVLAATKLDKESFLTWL
UniProt Q9GZV5: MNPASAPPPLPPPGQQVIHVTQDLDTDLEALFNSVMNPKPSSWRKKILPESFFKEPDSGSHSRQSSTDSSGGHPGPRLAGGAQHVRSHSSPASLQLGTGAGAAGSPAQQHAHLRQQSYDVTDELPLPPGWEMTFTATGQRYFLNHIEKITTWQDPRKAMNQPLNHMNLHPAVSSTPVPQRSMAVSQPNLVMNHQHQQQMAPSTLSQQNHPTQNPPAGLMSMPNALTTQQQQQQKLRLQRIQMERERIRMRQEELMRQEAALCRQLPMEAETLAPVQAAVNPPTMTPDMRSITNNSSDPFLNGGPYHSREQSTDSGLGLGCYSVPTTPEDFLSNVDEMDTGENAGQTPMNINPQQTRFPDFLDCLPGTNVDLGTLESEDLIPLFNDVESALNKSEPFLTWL
UniProt P46937: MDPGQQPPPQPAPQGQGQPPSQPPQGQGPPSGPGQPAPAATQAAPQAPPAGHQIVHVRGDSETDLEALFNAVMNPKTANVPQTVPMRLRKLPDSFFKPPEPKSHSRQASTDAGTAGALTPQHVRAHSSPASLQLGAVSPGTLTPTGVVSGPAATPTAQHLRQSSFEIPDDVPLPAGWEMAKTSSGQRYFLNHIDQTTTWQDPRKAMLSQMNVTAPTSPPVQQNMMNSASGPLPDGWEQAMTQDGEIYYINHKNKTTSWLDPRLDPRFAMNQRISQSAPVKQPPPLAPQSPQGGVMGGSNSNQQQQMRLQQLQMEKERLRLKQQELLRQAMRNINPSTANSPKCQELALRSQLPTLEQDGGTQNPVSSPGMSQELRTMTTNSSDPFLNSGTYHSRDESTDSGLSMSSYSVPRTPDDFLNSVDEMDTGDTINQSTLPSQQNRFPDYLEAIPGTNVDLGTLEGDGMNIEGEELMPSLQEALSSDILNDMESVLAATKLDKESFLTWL
UniProt P48432: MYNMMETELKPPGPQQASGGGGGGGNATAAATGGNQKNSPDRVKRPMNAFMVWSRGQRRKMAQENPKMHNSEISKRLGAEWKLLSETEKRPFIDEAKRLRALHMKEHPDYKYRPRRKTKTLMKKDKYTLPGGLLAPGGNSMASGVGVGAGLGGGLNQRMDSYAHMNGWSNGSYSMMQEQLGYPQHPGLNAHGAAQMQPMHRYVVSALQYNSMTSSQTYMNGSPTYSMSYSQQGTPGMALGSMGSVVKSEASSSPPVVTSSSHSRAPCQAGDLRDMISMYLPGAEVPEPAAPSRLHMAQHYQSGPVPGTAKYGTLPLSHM
UniProt P48431: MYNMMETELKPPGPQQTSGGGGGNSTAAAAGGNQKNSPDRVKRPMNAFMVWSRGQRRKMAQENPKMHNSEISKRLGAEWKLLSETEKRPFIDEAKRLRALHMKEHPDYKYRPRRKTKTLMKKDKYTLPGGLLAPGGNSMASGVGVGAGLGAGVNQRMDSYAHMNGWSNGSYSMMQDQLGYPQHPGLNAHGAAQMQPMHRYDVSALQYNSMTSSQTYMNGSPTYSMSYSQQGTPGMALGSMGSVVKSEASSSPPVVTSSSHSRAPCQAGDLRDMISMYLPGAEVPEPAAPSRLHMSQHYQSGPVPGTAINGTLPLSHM
UniProt O00429: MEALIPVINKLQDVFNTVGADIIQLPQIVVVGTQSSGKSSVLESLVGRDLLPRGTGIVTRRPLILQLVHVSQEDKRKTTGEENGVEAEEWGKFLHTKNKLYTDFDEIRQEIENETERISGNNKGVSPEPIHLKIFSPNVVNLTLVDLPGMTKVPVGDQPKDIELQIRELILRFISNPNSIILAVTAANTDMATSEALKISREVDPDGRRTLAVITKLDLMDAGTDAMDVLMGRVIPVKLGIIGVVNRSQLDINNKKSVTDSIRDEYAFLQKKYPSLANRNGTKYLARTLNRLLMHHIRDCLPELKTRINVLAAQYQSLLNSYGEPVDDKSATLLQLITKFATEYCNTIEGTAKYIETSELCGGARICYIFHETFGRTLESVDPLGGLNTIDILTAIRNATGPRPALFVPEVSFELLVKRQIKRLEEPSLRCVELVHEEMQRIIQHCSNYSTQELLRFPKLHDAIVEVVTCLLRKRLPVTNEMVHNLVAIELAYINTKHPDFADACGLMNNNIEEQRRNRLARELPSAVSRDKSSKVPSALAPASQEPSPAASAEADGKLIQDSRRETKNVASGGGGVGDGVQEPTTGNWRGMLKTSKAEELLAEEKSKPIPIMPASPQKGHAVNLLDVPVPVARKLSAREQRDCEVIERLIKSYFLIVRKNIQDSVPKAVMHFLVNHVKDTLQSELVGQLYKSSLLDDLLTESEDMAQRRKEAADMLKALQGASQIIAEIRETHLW

binding [1] | binding [2] | binding [3] | binding [4] | binding [5] | binding [6] | binding [7] | binding [8] | binding [9] | binding [10] | Substance
binds | binds |  |  |  |  |  |  |  |  | SOX2 (mouse) (from UniProt P48432 1-319)
 | binds |  |  |  |  |  |  |  |  | TAZ (mouse) (from UniProt Q9EPK5 1-395)
 |  | binds | binds | binds | binds | binds | binds | binds | binds | SOX2 (from UniProt P48431 1-317)
 |  |  |  | binds | binds | binds | binds | binds | binds | DRP1 (from UniProt O00429 1-736)
